Measurements reported in PubChem BioAssay AID1259259 (Sanger Institute, 2017).
Screen: 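Kinase silencing that lowers colorectal cancer cell viability alone or with drugs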 (primary screen). Cell system: SW1463 human colorectal cancer cells. Reagent: siRNA pool against human genes. Challenge: DMSO vehicle, or one anchor drug: BYL719 at 1 µM, cetuximab at 5 µg/ml, or trametinib at 10 nM. Detection: 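Viability as fraction of control pool 2 (non-targeting), replicate mean; knock-down robust z-score without any drug; synergy score averaged for each anchor drug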. Reading the numbers: robust z-score, knock-down alone: higher = more viable cells after knock-down; viability, knock-down alone: higher = more viable cells; synergy score with BYL719 and synergy score with cetuximab and synergy score with trametinib: higher = stronger synergy (synthetic lethal) with drug. Hit rule: 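a robust z-score under -3 for knock-down with no drug marks the gene as essential, meaning viability loss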. Calls: active = essential: viability loss from knock-down alone; inactive = no change from knock-down alone.
Here is an unselected part of 794 deposited reagents. Of all reagents, 9 (1.1%) are marked active. 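Calls rest on knock-down alone, not drug synergy; viability values seem capped at 1.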 A number with no mark means an inactive call. Not stated in the record: the amount of reagent, the time to read-out.

no.	gene knocked down	robust z-score, knock-down alone	viability, knock-down alone (fraction of control)	synergy score with BYL719	synergy score with cetuximab	synergy score with trametinib
1	DLG3 (discs large MAGUK scaffold protein 3)	0.841	0.982	-0.0183	0.224	0.0648
2	CLSPN (claspin)	-0.0937	0.922	-0.0784	-0.103	-0.046
3	MARK4 (microtubule affinity regulating kinase 4)	0.945	0.988	0.0257	-0.0386	-0.0439
4	GUCY2EP (guanylate cyclase 2E, pseudogene)	-0.482	0.897	0.0175	0.199	0.0778
5	SCYL3 (SCY1 like pseudokinase 3)	-2.4	0.774	-0.123	-0.192	-0.0499
6	PRKD2 (protein kinase D2)	-0.679	0.884	-0.0586	0.133	0.119
7	CDK8 (cyclin dependent kinase 8)	1.13	1	0.0614	0.177	0.123
8	RTN4 (reticulon 4)	-0.0375	0.925	-0.0304	0.0665	0.125
9	CDK9 (cyclin dependent kinase 9)	-0.73	0.881	-0.00361	0.154	0.00944
10	MYLK3 (myosin light chain kinase 3)	-0.886	0.871	-0.114	-0.0451	0.0166
11	WNK3 (WNK lysine deficient protein kinase 3)	0.208	0.941	0.0392	0.0239	-0.0162
12	NIM1K (NIM1 serine/threonine protein kinase)	0.717	0.974	-0.0263	0.0405	0.148
13	CALM1 (calmodulin 1)	-0.225	0.913	0.114	0.125	0.124
14	N4BP2 (NEDD4 binding protein 2)	0.501	0.96	-0.0402	-0.01	-0.0715
15	PHKA2 (phosphorylase kinase regulatory subunit alpha 2)	-0.241	0.912	-0.0878	-0.00987	-0.118
16	FER (FER tyrosine kinase)	-0.0617	0.924	-0.038	0.0845	0.0718
17	STK32C (serine/threonine kinase 32C)	0.667	0.97	-0.0295	0.0299	0.00748
18	PRKAR2B	-1.74	0.816	0.0235	0.0429	0.0882
19	MLKL (mixed lineage kinase domain like pseudokinase)	0.56	0.964	0.0513	0.151	0.0953
20	PI4KA (phosphatidylinositol 4-kinase alpha)	-0.424	0.9	-0.0185	-0.0521	-0.106
21	NRBP1 (nuclear receptor binding protein 1)	-0.173	0.917	-0.00203	0.0507	-0.113
22	KSR1 (kinase suppressor of ras 1)	-0.566	0.891	0.088	0.136	0.349
23	GUCY2C (guanylate cyclase 2C)	1.13	1	0.133	0.251	0.125
24	PRAG1 (PEAK1 related, kinase-activating pseudokinase 1)	-1.25	0.847	0.0237	0.212	0.168
25	CERK (ceramide kinase)	0.613	0.967	0.107	0.184	0.179
26	RELA (RELA proto-oncogene, NF-kB subunit)	0.598	0.966	-0.0216	0.294	0.0182
27	MKNK2 (MAPK interacting serine/threonine kinase 2)	0.282	0.946	-0.00991	-0.08	-0.0799
28	RPS6KA5 (ribosomal protein S6 kinase A5)	-0.386	0.903	0.0774	-0.0107	0.0794
29	EPHB4 (EPH receptor B4)	-0.308	0.908	-0.0219	0.175	0.0813
30	CDKL4 (cyclin dependent kinase like 4)	0.0315	0.93	0.0131	-0.031	0.0415
31	MST1R (macrophage stimulating 1 receptor)	-0.54	0.893	0.0196	0.00263	-0.0434
32	TCF12 (transcription factor 12)	1.13	1	0.101	0.149	-0.0326
33	PIK3CB	-0.615	0.888	0.00748	0.165	0.0561
34	GRK7 (G protein-coupled receptor kinase 7)	-0.722	0.881	-0.0452	-0.0543	0.0729
35	PAK4 (p21 (RAC1) activated kinase 4)	0.388	0.953	-0.0474	0.0336	0.0412
36	TSKS (testis specific serine kinase substrate)	0.825	0.981	-0.0194	-0.0461	-0.0514
37	ACVR1C (activin A receptor type 1C)	-0.264	0.911	0.0143	0.0869	0.0582
